Experimental data from paper PMC12667517, “Gigaxonin Potentiates Antiviral Innate Immune Responses by Targeting cGAS and TREX1” (Advanced Science, 2025).

Chains of the proteins cited; added tags and fusions are not shown.
UniProt Q8C6L5: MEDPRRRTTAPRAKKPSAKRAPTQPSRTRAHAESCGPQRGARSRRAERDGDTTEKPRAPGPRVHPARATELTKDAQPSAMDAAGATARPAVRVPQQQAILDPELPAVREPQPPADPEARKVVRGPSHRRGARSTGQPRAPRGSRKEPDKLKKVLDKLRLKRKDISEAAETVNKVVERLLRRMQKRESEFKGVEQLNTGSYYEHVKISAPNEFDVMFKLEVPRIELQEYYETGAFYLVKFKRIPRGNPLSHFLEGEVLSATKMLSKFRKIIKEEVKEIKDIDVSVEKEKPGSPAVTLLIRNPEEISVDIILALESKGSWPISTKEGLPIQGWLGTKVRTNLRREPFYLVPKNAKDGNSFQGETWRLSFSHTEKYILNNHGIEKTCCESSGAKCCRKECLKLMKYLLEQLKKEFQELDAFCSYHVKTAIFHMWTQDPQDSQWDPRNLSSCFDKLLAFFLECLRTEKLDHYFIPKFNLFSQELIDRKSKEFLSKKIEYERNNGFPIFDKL

Biological target: mouse cGAS (cyclic GMP-AMP synthase), endogenous in RAW264.7 (mouse (endogenous in RAW264.7)) (UniProt Q8C6L5)
Assay: affinity purification with mass spectrometry; co-IP from RAW264.7 cells with an anti-mouse cGAS antibody, then mass spectrometry; HSV-1-infected group

binding: binds
B1: murine gigaxonin, endogenous in RAW264.7 (protein, UniProt Q8CA72 1-597)
chain: MAEGSAVSDPQHAARLLRALSSFREEARFCDAHLVLDGEEIPVQKNILAAASPYIRTKLNYNPPKDDGSTYKIELEGISVMVMREILDYIFSGQIRLNEDTIQDVVQAADLLLLTDLKTLCCEFLEGCIAAENCIGIRDFALHYCLHHVHYLATEYLETHFRDVSSTEEFLELSPQKLKEVISLEKLNVGNERYVFEAVIRWIAHDVEMRKVHMKDVMSALWVSGLDSSYLREQMLNEPLVREIVKECSNIPLSQPQQGEAMLASFKPRGYSECIVTIGGEERVSRKPTAAMRCMCPLYDPNRQLWIELAPLSMPRINHGVLSAEGFLFVLGGQDENKQTLSSGEKYDPDANTWTALPPMHEARHNFGIVEIDGMLYILGGEDGDRELISMECYDIYSKTWTKQPDLTMVRKIGCYAAMKKKIYAMGGGSYGKLFESVECYDPRTQQWTAICPLKERRFGAVACGVAMELYVFGGVRSREDIQGSEMVTCKSEFYHDEFKRWIYLNDQNLCIPASSSFVYGAVPIGASIYVIGDLDTGTNYDYVREFKRSTGTWHHTKPLLPSDLRRTGCAALRIANCKLFRLQLQQGLFRIRVHSP

No constants are given. Whether binding was seen depends on the method and setting. In cells and extracts the contact can be indirect. A yes stands for co-enrichment or nearness to the bait. Other partners may have been found.
